From publication doi:10.1101/2022.05.11.491457
These are yes or no findings as the source states them, for the method shown. In cells and extracts the contact can be indirect. A yes stands for co-enrichment or nearness to the bait. Other partners may have been found. Sequences can lack the tags named with a protein.

Key:
[1] = molecular target: T1, ABCG36-GFP (PEN3:PEN3-GFP), Arabidopsis roots (Arabidopsis thaliana) (UniProt Q9XIE2); assay: affinity purification with mass spectrometry
T1 sequence: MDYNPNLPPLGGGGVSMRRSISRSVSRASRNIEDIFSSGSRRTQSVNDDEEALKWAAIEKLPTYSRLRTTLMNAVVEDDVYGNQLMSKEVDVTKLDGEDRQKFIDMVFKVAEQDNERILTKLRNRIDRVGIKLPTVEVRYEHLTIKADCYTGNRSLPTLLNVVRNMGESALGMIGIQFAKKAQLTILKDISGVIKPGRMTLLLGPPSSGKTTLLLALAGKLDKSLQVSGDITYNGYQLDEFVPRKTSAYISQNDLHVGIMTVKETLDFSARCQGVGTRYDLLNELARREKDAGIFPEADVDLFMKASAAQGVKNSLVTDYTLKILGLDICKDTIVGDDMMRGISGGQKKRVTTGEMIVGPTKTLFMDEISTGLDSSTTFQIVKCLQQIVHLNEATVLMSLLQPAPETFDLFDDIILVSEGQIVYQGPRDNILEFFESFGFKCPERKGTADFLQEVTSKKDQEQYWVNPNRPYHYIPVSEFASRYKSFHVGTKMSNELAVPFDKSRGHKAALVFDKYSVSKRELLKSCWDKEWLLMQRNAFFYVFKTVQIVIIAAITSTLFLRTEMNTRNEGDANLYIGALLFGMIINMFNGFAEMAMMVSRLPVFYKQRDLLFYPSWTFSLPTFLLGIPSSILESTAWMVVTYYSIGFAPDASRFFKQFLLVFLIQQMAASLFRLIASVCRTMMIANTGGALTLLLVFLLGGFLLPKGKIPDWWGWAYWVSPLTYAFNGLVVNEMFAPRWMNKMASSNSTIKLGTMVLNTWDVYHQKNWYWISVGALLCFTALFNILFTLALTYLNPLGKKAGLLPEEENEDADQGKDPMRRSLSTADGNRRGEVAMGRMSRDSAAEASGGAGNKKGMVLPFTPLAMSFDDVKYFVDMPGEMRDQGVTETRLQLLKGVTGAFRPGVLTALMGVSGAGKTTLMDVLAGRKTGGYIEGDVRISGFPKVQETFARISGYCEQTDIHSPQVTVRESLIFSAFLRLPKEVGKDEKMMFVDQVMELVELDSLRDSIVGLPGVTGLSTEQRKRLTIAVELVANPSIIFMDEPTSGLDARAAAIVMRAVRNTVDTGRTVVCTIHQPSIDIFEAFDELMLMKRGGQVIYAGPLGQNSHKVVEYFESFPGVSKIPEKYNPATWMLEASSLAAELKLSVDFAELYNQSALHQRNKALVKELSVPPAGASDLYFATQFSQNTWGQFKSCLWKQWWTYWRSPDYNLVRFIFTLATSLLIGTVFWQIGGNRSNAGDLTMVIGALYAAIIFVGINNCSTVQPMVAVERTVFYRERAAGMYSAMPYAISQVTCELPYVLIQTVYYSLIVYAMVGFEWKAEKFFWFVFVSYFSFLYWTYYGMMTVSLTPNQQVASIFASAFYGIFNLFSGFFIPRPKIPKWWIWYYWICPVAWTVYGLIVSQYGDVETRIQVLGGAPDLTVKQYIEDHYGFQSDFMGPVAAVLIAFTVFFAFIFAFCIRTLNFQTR

[2] = molecular target: T2, ALK1-YFP (35S:ALK1-YFP) (Arabidopsis thaliana) (UniProt Q9M8T0); assay: affinity purification with mass spectrometry
T2 sequence: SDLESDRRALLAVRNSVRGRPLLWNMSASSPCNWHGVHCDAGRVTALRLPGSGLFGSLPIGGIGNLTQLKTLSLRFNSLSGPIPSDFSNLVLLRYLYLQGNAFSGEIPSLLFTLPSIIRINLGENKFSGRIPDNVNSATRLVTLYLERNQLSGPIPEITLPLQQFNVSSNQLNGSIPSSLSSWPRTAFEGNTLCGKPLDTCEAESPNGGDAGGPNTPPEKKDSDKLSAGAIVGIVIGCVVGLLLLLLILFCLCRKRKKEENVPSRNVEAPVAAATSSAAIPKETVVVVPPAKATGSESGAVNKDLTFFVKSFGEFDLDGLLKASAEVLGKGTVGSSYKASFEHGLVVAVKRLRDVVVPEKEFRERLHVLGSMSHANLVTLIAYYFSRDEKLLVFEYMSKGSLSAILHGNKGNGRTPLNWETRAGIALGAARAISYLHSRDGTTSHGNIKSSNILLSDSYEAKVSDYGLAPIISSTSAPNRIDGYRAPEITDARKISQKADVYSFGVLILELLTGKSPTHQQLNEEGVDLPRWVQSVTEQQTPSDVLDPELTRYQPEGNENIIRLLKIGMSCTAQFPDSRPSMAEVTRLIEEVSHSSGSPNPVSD

B1: Auxin-induced LRR Kinase1 (ALK1/QSK1/KIN7), At3g02880, endogenous (receptor, UniProt Q9M8T0 24-627)
chain: SDLESDRRALLAVRNSVRGRPLLWNMSASSPCNWHGVHCDAGRVTALRLPGSGLFGSLPIGGIGNLTQLKTLSLRFNSLSGPIPSDFSNLVLLRYLYLQGNAFSGEIPSLLFTLPSIIRINLGENKFSGRIPDNVNSATRLVTLYLERNQLSGPIPEITLPLQQFNVSSNQLNGSIPSSLSSWPRTAFEGNTLCGKPLDTCEAESPNGGDAGGPNTPPEKKDSDKLSAGAIVGIVIGCVVGLLLLLLILFCLCRKRKKEENVPSRNVEAPVAAATSSAAIPKETVVVVPPAKATGSESGAVNKDLTFFVKSFGEFDLDGLLKASAEVLGKGTVGSSYKASFEHGLVVAVKRLRDVVVPEKEFRERLHVLGSMSHANLVTLIAYYFSRDEKLLVFEYMSKGSLSAILHGNKGNGRTPLNWETRAGIALGAARAISYLHSRDGTTSHGNIKSSNILLSDSYEAKVSDYGLAPIISSTSAPNRIDGYRAPEITDARKISQKADVYSFGVLILELLTGKSPTHQQLNEEGVDLPRWVQSVTEQQTPSDVLDPELTRYQPEGNENIIRLLKIGMSCTAQFPDSRPSMAEVTRLIEEVSHSSGSPNPVSD
Question: With B1 as the binder, how does the binding [1] read?
Answer: The binding was “binds”.

B2: ABCG34/PDR6, endogenous (protein, UniProt Q7PC87 1-1453)
chain: MLGRDEDLVRTMSGRGSLGSTSHRSLAGAASKSFRDVFAPPTDDVFGRSDRREEDDVELRWAALERLPTYDRLRKGMLPQTMVNGKIGLEDVDVTNLAPKEKKHLMEMILKFVEEDNEKFLRRLRERTDRVGIEVPKIEVRYENLSVEGDVRSASRALPTLFNVTLNTIESILGLFHLLPSKKRKIEILKDISGIIKPSRMTLLLGPPSSGKTTLLQALAGKLDDTLQMSGRITYCGHEFREFVPQKTCAYISQHDLHFGEMTVRESLDFSGRCLGVGTRYQLLTELSRREREAGIKPDPEIDAFMKSIAISGQETSLVTDYVLKLLGLDICADTLVGDVMRRGISGGQRKRLTTGEMLVGPATALFMDEISTGLDSSTTFQICKFMRQLVHIADVTMVISLLQPAPETFELFDDIILLSEGQIVYQGSRDNVLEFFEYMGFKCPERKGIADFLQEVTSKKDQEQYWNRREHPYSYVSVHDFSSGFNSFHAGQQLASEFRVPYDKAKTHPAALVTQKYGISNKDLFKACFDREWLLMKRNSFVYVFKTVQITIMSLIAMTVYFRTEMHVGTVQDGQKFYGALFFSLINLMFNGMAELAFTVMRLPVFFKQRDFLFYPPWAFALPGFLLKIPLSLIESVIWIALTYYTIGFAPSAARFFRQLLAYFCVNQMALSLFRFLGALGRTEVIANSGGTLALLVVFVLGGFIISKDDIPSWLTWCYYTSPMMYGQTALVINEFLDERWGSPNNDTRINAKTVGEVLLKSRGFFTEPYWFWICIGALLGFTVLFNFCYIIALMYLNPLGNSKATTVVEEGKDKHKGSHSGTGGSVVELTSTSSHGPKKGMVLPFQPLSLAFNNVNYYVDMPAEMKAQGVEGDRLQLLRDVGGAFRPGVLTALVGVSGAGKTTLMDVLAGRKTGGYVEGSINISGYPKNQATFARVSGYCEQNDIHSPHVTVYESLIYSAWLRLSADIDTKTREMFVEEVMELVELKPLRNSIVGLPGVDGLSTEQRKRLTIAVELVANPSIIFMDEPTSGLDARAAAIVMRTVRNTVDTGRTVVCTIHQPSIDIFESFDELLLMKRGGQVIYAGTLGHHSQKLVEYFEAIEGVPKIKDGYNPATWMLDVTTPSMESQMSVDFAQIFVNSSVNRRNQELIKELSTPPPGSNDLYFRTKYAQPFSTQTKACFWKMYWSNWRYPQYNAIRFLMTVVIGVLFGLLFWQTGTKIEKEQDLNNFFGAMYAAVLFLGATNAATVQPAVAIERTVFYREKAAGMYSAIPYAISQVAVEIMYNTIQTGVYTLILYSMIGYDWTVVKFFWFYYYMLTCFVYFTLYGMMLVALTPNYQIAGICLSFFLSFWNLFSGFLIPRPQIPIWWRWYYWASPVAWTLYGIITSQVGDRDSIVHITGVGDMSLKTLLKNGFGFDYDFLPVVAVVHIAWILIFLFAFAYGIKFLNFQRR
Question: With B2 as the binder, how does the binding [2] read?
Answer: Its binding is “binds”.

B3: ABCG40/PDR12, endogenous (protein, UniProt Q9M9E1 1-1423)
chain: MEGTSFHQASNSMRRNSSVWKKDSGREIFSRSSREEDDEEALRWAALEKLPTFDRLRKGILTASHAGGPINEIDIQKLGFQDTKKLLERLIKVGDDEHEKLLWKLKKRIDRVGIDLPTIEVRFDHLKVEAEVHVGGRALPTFVNFISNFADKFLNTLHLVPNRKKKFTILNDVSGIVKPGRMALLLGPPSSGKTTLLLALAGKLDQELKQTGRVTYNGHGMNEFVPQRTAAYIGQNDVHIGEMTVRETFAYAARFQGVGSRYDMLTELARREKEANIKPDPDIDIFMKAMSTAGEKTNVMTDYILKILGLEVCADTMVGDDMLRGISGGQKKRVTTGEMLVGPSRALFMDEISTGLDSSTTYQIVNSLRNYVHIFNGTALISLLQPAPETFNLFDDIILIAEGEIIYEGPRDHVVEFFETMGFKCPPRKGVADFLQEVTSKKDQMQYWARRDEPYRFIRVREFAEAFQSFHVGRRIGDELALPFDKTKSHPAALTTKKYGVGIKELVKTSFSREYLLMKRNSFVYYFKFGQLLVMAFLTMTLFFRTEMQKKTEVDGSLYTGALFFILMMLMFNGMSELSMTIAKLPVFYKQRDLLFYPAWVYSLPPWLLKIPISFMEAALTTFITYYVIGFDPNVGRLFKQYILLVLMNQMASALFKMVAALGRNMIVANTFGAFAMLVFFALGGVVLSRDDIKKWWIWGYWISPIMYGQNAILANEFFGHSWSRAVENSSETLGVTFLKSRGFLPHAYWYWIGTGALLGFVVLFNFGFTLALTFLNSLGKPQAVIAEEPASDETELQSARSEGVVEAGANKKRGMVLPFEPHSITFDNVVYSVDMPQEMIEQGTQEDRLVLLKGVNGAFRPGVLTALMGVSGAGKTTLMDVLAGRKTGGYIDGNITISGYPKNQQTFARISGYCEQTDIHSPHVTVYESLVYSAWLRLPKEVDKNKRKIFIEEVMELVELTPLRQALVGLPGESGLSTEQRKRLTIAVELVANPSIIFMDEPTSGLDARAAAIVMRTVRNTVDTGRTVVCTIHQPSIDIFEAFDELFLLKRGGEEIYVGPLGHESTHLINYFESIQGINKITEGYNPATWMLEVSTTSQEAALGVDFAQVYKNSELYKRNKELIKELSQPAPGSKDLYFPTQYSQSFLTQCMASLWKQHWSYWRNPPYTAVRFLFTIGIALMFGTMFWDLGGKTKTRQDLSNAMGSMYTAVLFLGLQNAASVQPVVNVERTVFYREQAAGMYSAMPYAFAQVFIEIPYVLVQAIVYGLIVYAMIGFEWTAVKFFWYLFFMYGSFLTFTFYGMMAVAMTPNHHIASVVSSAFYGIWNLFSGFLIPRPSMPVWWEWYYWLCPVAWTLYGLIASQFGDITEPMADSNMSVKQFIREFYGYREGFLGVVAAMNVIFPLLFAVIFAIGIKSFNFQKR
Question: How did the binding [2] turn out when B3 was run?
Answer: Its binding is “binds”.
